This passage reports binding results from patent publication US20240085427A1 (published 2024).

Protein sequences, listed by entry. Tags and fused reporters are not part of them. Residues count along the entry.
UniProt O95994, residues 21-175: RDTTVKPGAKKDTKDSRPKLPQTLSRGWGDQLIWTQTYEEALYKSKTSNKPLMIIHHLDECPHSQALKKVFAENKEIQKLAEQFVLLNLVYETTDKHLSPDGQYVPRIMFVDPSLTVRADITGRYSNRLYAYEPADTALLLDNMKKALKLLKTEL

Assay [1] has as its target Anterior Gradient 2 (AGR2) (UniProt O95994). Nature of the assay: screening of monoclonal phage and soluble scFv from crude bacterial lysates.
For assay [2] the target is unchanged. The assay is described as follows: ELISA on coated plates (FIG. 6A).

These are yes or no findings as the source states them, for the method shown. Some results given as binding are weak or reduced against the parent protein; the word gives no strength.

B1: anti-AGR2 scFv clone 1 (scFv)
scFv: EVQLLESGGGLVQPGGSLRLSCAASGFTFSSYAMSWVRQAPGKGLEWVSGIQSTGALTAYADSVKGRFTISRDNSKNTLYLQMNSLRAEDTAVYYCAKLAQTFDYWGQGTLVTVSSGGGGSGGGGSGGGGSTDIQMTQSPSSLSASVGDRVTITCRASQSISSYLNWYQQKPGKAPKLLIYRASSLQSGVPSRFSGSGSGTDFTLTISSLQPEDFATYYCQQTRRLPVTFGQGTKVEIK
On to B1, for which the binding entry in assay [1] and in assay [2] was “binds” throughout.

B2: anti-AGR2 scFv clone 19 (scFv)
scFv: EVQLLESGGGLVQPGGSLRLSCAASGFTFSSYAMSWVRQAPGKGLEWVSAIASQGVATGYADSVKGRFTISRDNSKNTLYLQMNSLRAEDTAVYYCAKLDQHFDYWGQGTLVTVSSGGGGSGGGGSGGGGSTDIQMTQSPSSLSASVGDRVTITCRASQSISSYLNWYQQKPGKAPKLLIYQASRLQSGVPSRFSGSGSGTDFTLTISSLQPEDFATYYCQQARRLPLTFGQGTKVEIK
For the molecule B2, the binding entry in assay [1] and in assay [2] was “binds” each time.

B3: anti-AGR2 scFv clone 26 (scFv)
scFv: EVQLLESGGGLVQPGGSLRLSCAASGFTFSSYAMSWVRQAPGKGLEWVSSIQGQGRITRYADSVKGRFTISRDNSKNTLYLQMNSLRAEDTAVYYCAKRAIMFDYWGQGTLVTVSSGGGGSGGGGSGGGGSTDIQMTQSPSSLSASVGDRVTITCRASQSISSYLNWYQQKPGKAPKLLIYHASLLQSGVPSRFSGSGSGTDFTLTISSLQPEDFATYYCQQARYWPLTFGQGTKVEIK
Consider B3, for which the binding result in assay [1] and in assay [2] was “binds” in each case.
